Experimental data: PubChem BioAssay AID270 (DTP/NCI, 2004)
The list does not hold the whole screen: it is rich in T/C values a quarter to a half above the control, in often repeated tests (any T/C) and in doses without a T/C. Other doses and runs of a compound stand elsewhere. T/C: endpoint of the treated group in % of that of the vehicle group. Schedule codes are those of the source, taken here to give the interval after Q, in days (D) or hours (H), and the number of doses after X. Some entries give survivors of the animals treated and no T/C: the source files T/C as zero there, which appears to mark a toxic dose or a test without result, not a measured value. Some survivor counts are full or nearly so, which does not show that the dose was tolerated: the source hardly ever lists a survival T/C far under the control, and the zero likely stands for such cases as well. Survivors were counted at the toxicity check, usually on the fifth day, unless a day is given; later deaths do not show. Some entries hold several experiments; their values stand side by side, smallest first. For survival time, this PubChem deposit counts one and a half times the control or more as active, and values a quarter to a half above the control carry no call in these data; other NCI protocols may use other cut-offs. Some T/C values carry the count of animals alive at the toxicity check (mostly the fifth day); where none is given, no animal had died by that day.

System: BDF1 mice, s.c. Lewis lung carcinoma, T/C %
Assay: NCI In Vivo Anticancer Drug Screen. Data for tumor model Lewis Lung Carcinoma (subcutaneous) in B6D2F1 (BDF1) mice
In short: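 First, mice carry a transplantable tumor. Next, groups receive either compound or vehicle. Finally, survival or tumor dimensions in the dosed animals are divided by the corresponding control figure.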

[1] = T/C endpoint: median survival time, dose: 2.0 mg/kg/injection, schedule: Q01DX009 (ip), vehicle: saline, higher T/C = longer survival

Compound: CNC(=S)N/N=C/c1ccc([N+](=O)[O-])s1
- survivor count (T/C endpoint: median survival time, dose: 6.25 mg/kg/injection, schedule: Q01DX009 (ip), vehicle: saline with Tween-80, higher T/C = longer survival): 10 of 10
- T/C (T/C endpoint: median survival time, dose: 12.5 mg/kg/injection, schedule: Q01DX009 (ip), vehicle: saline with Tween-80, higher T/C = longer survival): 127 % of control

Compound: C[C@]12CC[C@H](OC3OC(CO)C(O)C(O)C3O)C[C@H]1CC[C@@H]1[C@@H]2CC[C@]2(C)[C@@H](C3=CCOC3=O)CC[C@]12O (some centres undefined)
- survivor count (T/C endpoint: mean tumor weight, dose: 1.0 mg/kg/injection, schedule: Q01DX011 (ip), vehicle: saline, higher T/C = larger tumour): 3 of 6
- survivor count (T/C endpoint: mean tumor weight, dose: 2.0 mg/kg/injection, schedule: Q01DX011 (ip), vehicle: carboxymethylcellulose (CMC), higher T/C = larger tumour): 0 of 6

Compound: COC(=O)C(N)CCCCNc1ccc2c(cc1=O)C(NC(C)=O)CCc1cc(OC)c(OC)c(OC)c1-2 (centres undefined)
- survivor count (T/C endpoint: median survival time, dose: 100.0 mg/kg/injection, schedule: Q02DX009 (ip), vehicle: saline with Tween-80, higher T/C = longer survival): 10 of 10
- survivor count (T/C endpoint: median survival time, dose: 200.0 mg/kg/injection, schedule: Q02DX009 (ip), vehicle: saline with Tween-80, higher T/C = longer survival): 10 of 10
- survivor count (T/C endpoint: median survival time, dose: 400.0 mg/kg/injection, schedule: Q02DX009 (ip), vehicle: saline with Tween-80, higher T/C = longer survival): 10 of 10

Compound: CCC(C)n1ncc2c(N(C)C)ncnc21 (centres undefined)
- T/C (T/C endpoint: mean tumor weight, dose: 16.25 mg/kg/injection, schedule: Q01DX011 (ip), vehicle: carboxymethylcellulose (CMC), evaluated on day 12, higher T/C = larger tumour): 132 % of control

Compound: Cc1ccnc(NS(=O)(=O)c2ccc(N=Nc3nc4[nH]c(N)nc(=S)c4[nH]3)cc2)n1
- survivor count (T/C endpoint: median survival time, dose: 3.12 mg/kg/injection, schedule: Q01DX009 (ip), vehicle: Klucel (hydroxypropylcellulose) (HPC), higher T/C = longer survival): 10 of 10
- survivor count (T/C endpoint: median survival time, dose: 6.25 mg/kg/injection, schedule: Q01DX009 (ip), vehicle: Klucel (hydroxypropylcellulose) (HPC), higher T/C = longer survival): 10 of 10
- survivor count (T/C endpoint: median survival time, dose: 12.5 mg/kg/injection, schedule: Q01DX009 (ip), vehicle: Klucel (hydroxypropylcellulose) (HPC), higher T/C = longer survival): 10 of 10
- survivor count (T/C endpoint: median survival time, dose: 25.0 mg/kg/injection, schedule: Q01DX009 (ip), vehicle: Klucel (hydroxypropylcellulose) (HPC), higher T/C = longer survival): 10 of 10
- survivor count (T/C endpoint: median survival time, dose: 50.0 mg/kg/injection, schedule: Q01DX009 (ip), vehicle: Klucel (hydroxypropylcellulose) (HPC), higher T/C = longer survival): 10 of 10

Compound: CC(C)([NH-])CO.CC(C)([NH-])CO.[Cl][Cd][Cl]
- survivor count (T/C endpoint: mean tumor weight, dose: 8.0 mg/kg/injection, schedule: Q01DX011 (ip), vehicle: saline, higher T/C = larger tumour): 2 of 6
- survivor count (T/C endpoint: mean tumor weight, dose: 16.0 mg/kg/injection, schedule: Q01DX011 (ip), vehicle: saline, higher T/C = larger tumour): 0 of 6
- survivor count (T/C endpoint: mean tumor weight, dose: 24.0 mg/kg/injection, schedule: Q01DX011 (ip), vehicle: saline, higher T/C = larger tumour): 0 of 6
- survivor count (T/C endpoint: mean tumor weight, dose: 32.0 mg/kg/injection, schedule: Q01DX011 (ip), vehicle: saline, higher T/C = larger tumour): 0 of 6

Compound: COc1cccc2c1C(=O)c1c(O)c3c(c(O)c1C2=O)C[C@@](O)(C(C)=O)C[C@@H]3OC1CC(N)C(O)C(C)O1 (some centres undefined)
- T/C (T/C endpoint: mean tumor weight, dose: 3.0 mg/kg/injection, schedule: Q01DX011 (sc), vehicle: steroid suspending solution, evaluated on day 12, higher T/C = larger tumour): 130 % of control
- survivor count (T/C endpoint: mean tumor weight, dose: 4.0 mg/kg/injection, schedule: Q01DX011 (ip), vehicle: saline, higher T/C = larger tumour): 3 of 10
- survivor count (T/C endpoint: mean tumor weight, dose: 10.0 mg/kg/injection, schedule: Q01DX011 (sc), vehicle: steroid suspending solution, higher T/C = larger tumour): 1 of 6
- T/C (T/C endpoint: median survival time, dose: 0.25 mg/kg/injection, schedule: Q01DX009 (ip), vehicle: saline, higher T/C = longer survival): 103, 110, 112, 118 % of control
- T/C (T/C endpoint: median survival time, dose: 0.5 mg/kg/injection, schedule: Q01DX009 (ip), vehicle: saline, higher T/C = longer survival): 91, 94, 102, 116 % of control
- T/C (T/C endpoint: median survival time, dose: 1.0 mg/kg/injection, schedule: Q01DX009 (ip), vehicle: saline, higher T/C = longer survival): 98, 100, 125, 144 % of control
- T/C [1]: 89, 101, 113 % of control
- survivor count [1]: 10 of 10
- survivor count (T/C endpoint: median survival time, dose: 4.0 mg/kg/injection, schedule: Q01DX009 (ip), vehicle: saline, higher T/C = longer survival): 10 of 10
- T/C (T/C endpoint: median survival time, dose: 250.0 micrograms/kg/injection, schedule: Q01DX009 (ip), vehicle: saline, higher T/C = longer survival): 135 % of control

Compound: O=C1C2C3CCC(O3)C2C(=O)N1c1nccs1 (centres undefined)
- survivor count (T/C endpoint: mean tumor weight, dose: 250.0 mg/kg/injection, schedule: Q01DX011 (ip), vehicle: carboxymethylcellulose (CMC), higher T/C = larger tumour): 1 of 6
- survivor count (T/C endpoint: mean tumor weight, dose: 500.0 mg/kg/injection, schedule: Q01DX011 (ip), vehicle: carboxymethylcellulose (CMC), higher T/C = larger tumour): 0 of 6

Compound: CCn1cnc2c(=S)nc(N)[nH]c21
- survivor count (T/C endpoint: mean tumor weight, dose: 60.0 mg/kg/injection, schedule: Q01DX011 (ip), vehicle: other, higher T/C = larger tumour): 0 of 6
- survivor count (T/C endpoint: mean tumor weight, dose: 90.0 mg/kg/injection, schedule: Q01DX011 (ip), vehicle: other, higher T/C = larger tumour): 0 of 6
- survivor count (T/C endpoint: mean tumor weight, dose: 120.0 mg/kg/injection, schedule: Q01DX011 (ip), vehicle: other, higher T/C = larger tumour): 0 of 6

Compound: CCOc1ccccc1C1N(Cc2ccc(OC)cc2)CCCN1Cc1ccc(OC)cc1
- T/C (T/C endpoint: mean tumor weight, dose: 250.0 mg/kg/injection, schedule: Q01DX011 (ip), vehicle: other, evaluated on day 12, higher T/C = larger tumour): 137 % of control

Compound: NC(CSC(c1ccccc1)(c1ccccc1)c1ccccc1)C(=O)O (centres undefined)
- survivor count (T/C endpoint: mean tumor weight, dose: 25.0 mg/kg/injection, schedule: Q01DX011 (ip), vehicle: methylcellulose (MC), higher T/C = larger tumour): 2 of 4
- survivor count (T/C endpoint: median survival time, dose: 16.0 mg/kg/injection, schedule: Q01DX009 (ip), vehicle: Klucel (hydroxypropylcellulose) (HPC), higher T/C = longer survival): 10 of 10
- survivor count (T/C endpoint: median survival time, dose: 64.0 mg/kg/injection, schedule: Q01DX009 (ip), vehicle: Klucel (hydroxypropylcellulose) (HPC), higher T/C = longer survival): 10 of 10
- survivor count (T/C endpoint: median survival time, dose: 128.0 mg/kg/injection, schedule: Q01DX009 (ip), vehicle: Klucel (hydroxypropylcellulose) (HPC), higher T/C = longer survival): 10 of 10

Compound: Oc1ccccc1/C=N/NC(=S)NC1CC2C=CC1C2 (centres undefined)
- survivor count (T/C endpoint: median survival time, dose: 25.0 mg/kg/injection, schedule: Q01DX009 (ip), vehicle: olive oil, sesame oil, peanut oil, higher T/C = longer survival): 10 of 10
- survivor count (T/C endpoint: median survival time, dose: 50.0 mg/kg/injection, schedule: Q01DX009 (ip), vehicle: olive oil, sesame oil, peanut oil, higher T/C = longer survival): 10 of 10
- survivor count (T/C endpoint: median survival time, dose: 400.0 mg/kg/injection, schedule: Q01DX009 (ip), vehicle: olive oil, sesame oil, peanut oil, higher T/C = longer survival): 10 of 10

Compound: COc1cc2c3c(c1)/C(=N\Nc1ccccc1)CCN3CCC2
- T/C (T/C endpoint: median survival time, dose: 1.56 mg/kg/injection, schedule: Q01DX009 (ip), vehicle: DMSO, higher T/C = longer survival): 129 % of control [6 of 9 alive]
- survivor count (T/C endpoint: median survival time, dose: 3.12 mg/kg/injection, schedule: Q01DX009 (ip), vehicle: DMSO, higher T/C = longer survival): 4 of 10
- survivor count (T/C endpoint: median survival time, dose: 6.25 mg/kg/injection, schedule: Q01DX009 (ip), vehicle: DMSO, higher T/C = longer survival): 8 of 10
- survivor count (T/C endpoint: median survival time, dose: 12.5 mg/kg/injection, schedule: Q01DX009 (ip), vehicle: DMSO, higher T/C = longer survival): 9 of 9
- survivor count (T/C endpoint: median survival time, dose: 25.0 mg/kg/injection, schedule: Q01DX009 (ip), vehicle: DMSO, higher T/C = longer survival): 5 of 8
- survivor count (T/C endpoint: median survival time, dose: 50.0 mg/kg/injection, schedule: Q01DX009 (ip), vehicle: DMSO, higher T/C = longer survival): 1 of 9

Compound: O=[N+]([O-])c1ccccc1CSc1ncnc2nc[nH]c12
- survivor count (T/C endpoint: mean tumor weight, dose: 250.0 mg/kg/injection, schedule: Q01DX011 (ip), vehicle: other, higher T/C = larger tumour): 1 of 6
- survivor count (T/C endpoint: mean tumor weight, dose: 500.0 mg/kg/injection, schedule: Q01DX011 (ip), vehicle: other, higher T/C = larger tumour): 0 of 6

Compound: NCC(O)c1ccc(O)c(O)c1 (centres undefined)
- survivor count (T/C endpoint: mean tumor weight, dose: 20.0 mg/kg/injection, schedule: Q01DX011 (ip), vehicle: saline, higher T/C = larger tumour): 2 of 6

Compound: IP(c1ccccc1)(c1ccccc1)(c1ccccc1)N1C2CCCCC21 (centres undefined)
- survivor count (T/C endpoint: median survival time, dose: 0.07 mg/kg/injection, schedule: Q01DX009 (ip), vehicle: Klucel (hydroxypropylcellulose) (HPC), higher T/C = longer survival): 9 of 10
- survivor count (T/C endpoint: median survival time, dose: 0.15 mg/kg/injection, schedule: Q01DX009 (ip), vehicle: Klucel (hydroxypropylcellulose) (HPC), higher T/C = longer survival): 10 of 10
- survivor count (T/C endpoint: median survival time, dose: 1.2 mg/kg/injection, schedule: Q01DX009 (ip), vehicle: Klucel (hydroxypropylcellulose) (HPC), higher T/C = longer survival): 9 of 10

Compound: Cc1cc2c(c3oc(C4(C)OC4C4OC4C)cc(=O)c13)C(=O)c1c(O)c(C3CC(C)(N(C)C)C(O)C(C)O3)cc(C3CC(N(C)C)C(O)C(C)O3)c1C2=O (centres undefined)
- survivor count (T/C endpoint: median survival time, dose: 2.0 micrograms/kg/injection, schedule: Q01DX009 (ip), vehicle: DMSO, higher T/C = longer survival): 10 of 10 on day 10
- survivor count (T/C endpoint: median survival time, dose: 32.0 micrograms/kg/injection, schedule: Q01DX009 (ip), vehicle: DMSO, higher T/C = longer survival): 6 of 10 on day 10
- survivor count (T/C endpoint: median survival time, dose: 64.0 micrograms/kg/injection, schedule: Q01DX009 (ip), vehicle: DMSO, higher T/C = longer survival): 7 of 10 on day 10

Compound: CO[C@H]1Nc2c(ccc(C)c2O)C(=O)N2C=C(/C=C/C(N)=O)C[C@@H]12
- survivor count (T/C endpoint: median survival time, dose: 0.12 mg/kg/injection, schedule: Q04DX003 (ip), vehicle: saline with Tween-80, higher T/C = longer survival): 7 of 10
- survivor count (T/C endpoint: median survival time, dose: 0.25 mg/kg/injection, schedule: Q04DX003 (ip), vehicle: saline with Tween-80, higher T/C = longer survival): 3 of 10 and 6 of 10
- survivor count (T/C endpoint: median survival time, dose: 0.5 mg/kg/injection, schedule: Q04DX003 (ip), vehicle: saline with Tween-80, higher T/C = longer survival): 4 of 10 and 10 of 10
- survivor count (T/C endpoint: median survival time, dose: 1.0 mg/kg/injection, schedule: Q04DX003 (ip), vehicle: saline with Tween-80, higher T/C = longer survival): 3 of 10 and 10 of 10
